# Assay: general procedure: peptide synthesis; Rink amide AM Resin (substitution 0.66 mill mole/gram)
substance,measurement,setting,value
Etelcalcetide,crude HPLC purity,"late stage modification step, analytical HPLC, acetate salt",93.67%
same,final HPLC purity,"whole synthesis, analytical HPLC, scale of the general procedure 1.21 kg resin, hydrochloride salt",99.70%
same,isolated mass,"whole synthesis, hydrochloride salt",252 grams
same,isolated yield,"whole synthesis, scale of the general procedure 1.21 kg resin, hydrochloride salt",30.07%

# Source: patent US20220298206 (published 2022)
